# Source: patent US7544689B2, “Purine derivatives” (Cyclacel Limited, priority 2002, dated 2009)
# Tested on: representative panel of human transformed tumour cell lines
# Experiment: Average anti-proliferative activity in tumour cell line panel
# Format: cell-based
# Details: read-out: average anti-proliferative IC50
compound,measurement,value
"CC[C@H](CO)Nc1nc(NCc2ccccc2)c2ncn(C(C)C)c2n1 [Roscovitine, reference compound]",IC50,~10 µM
